Source: publication PMC13279931
No constants are given. Whether binding was seen depends on the method and setting. In cells and extracts the contact can be indirect. A yes stands for co-enrichment or nearness to the bait. Other partners may have been found. Where a sequence is shown, tags or fusion partners need not be part of it.

Molecular target: T1, HA-Toc75 (Toc75 with an HA epitope tag inserted between E142 and E143 of the precursor) (A. thaliana) (UniProt Q9STE8)
T1 sequence: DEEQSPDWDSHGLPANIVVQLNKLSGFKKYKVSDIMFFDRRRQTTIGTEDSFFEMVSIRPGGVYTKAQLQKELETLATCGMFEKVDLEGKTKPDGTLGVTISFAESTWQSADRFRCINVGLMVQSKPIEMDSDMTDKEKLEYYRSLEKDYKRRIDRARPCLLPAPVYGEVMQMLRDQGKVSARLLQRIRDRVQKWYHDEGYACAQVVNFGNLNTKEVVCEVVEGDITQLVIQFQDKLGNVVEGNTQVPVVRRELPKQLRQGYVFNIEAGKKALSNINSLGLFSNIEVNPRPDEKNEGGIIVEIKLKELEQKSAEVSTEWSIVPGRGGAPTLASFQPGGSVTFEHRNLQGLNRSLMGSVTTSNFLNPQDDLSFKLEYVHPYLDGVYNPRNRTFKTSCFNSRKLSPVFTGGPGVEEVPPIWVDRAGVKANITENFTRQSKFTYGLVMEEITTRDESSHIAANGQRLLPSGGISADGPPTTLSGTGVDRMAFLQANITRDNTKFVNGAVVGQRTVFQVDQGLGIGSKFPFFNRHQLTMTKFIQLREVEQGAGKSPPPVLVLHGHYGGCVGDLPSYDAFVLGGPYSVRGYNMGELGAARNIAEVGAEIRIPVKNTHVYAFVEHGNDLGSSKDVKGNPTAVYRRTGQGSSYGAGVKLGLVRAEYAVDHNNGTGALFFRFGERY
Experiment: affinity purification with mass spectrometry; label-free quantification of HA-affinity purified HA-Toc75 preparations against a wild-type negative control (n = 3), in-solution digestion, LC-MS/MS

binding: binds
B1: OEP80 (Toc75-V) (protein, UniProt Q9C5J8 1-732)
chain: MHCHNDDVRFSSSSIRIHSPSPKEQHSLLTNLQSCSKTFVSHLSNTRNSLNQMLQSLKNRHTPPPRSVRRPNLPTQMLNSVTQLMIGKSSPISLSLIQSTQFNWSESRDENVETIRGLSSPLLCCASLSLTRPNESTQSVEGKDTVQQQKGHSVSRNAEERVLISEVLVRTKDGEELERKDLEMEALAALKACRANSALTIREVQEDVHRIIESGYFCSCTPVAVDTRDGIRLMFQVEPNQEFRGLVCENANVLPSKFIHEAFRDGFGKVINIKRLEEAITSINGWYMERGLFGIVSDIDTLSGGIVRLQVAEAEVNNISIRFLDRKTGEPTKGKTSPETILRQLTTKKGQVYSMLQGKRDVDTVLAMGIMEDVSIIPQPAGDSGKVDLIMNCVERPSGGFSAGGGISSGITSGPLSGLIGSFAYSHRNLFGRNQKLNVSLERGQIDSIFRINYTDPWIEGDDKRTSRSIMVQNSRTPGNLVHGNQPDNSSLTIGRVTAGVEYSRPFRPKWNGTAGLIFQHAGARDEQGNPIIKDFYSSPLTASGKPHDETMLAKLESIYTGSGDQGSTMFAFNMEQGLPVLPEWLCFNRVTGRARKGIHIGPARFLFSLSGGHVVGKFSPHEAFVIGGTNSVRGYEEGAVGSGRSYVVGSGELSFPVRGPVEGVIFTDYGTDMGSGSTVPGDPAGARLKPGSGYGYGLGVRVDSPLGPLRLEYAFNDQHAGRFHFGVGLRN
